Consider 22 targets from the supplement of paper PMC10849652.

Chains of the proteins cited; added tags and fusions are not shown. Lines headed by an entry give the natural chain unless they say otherwise; changes in a name come on top.
UniProt Q6L8Q7: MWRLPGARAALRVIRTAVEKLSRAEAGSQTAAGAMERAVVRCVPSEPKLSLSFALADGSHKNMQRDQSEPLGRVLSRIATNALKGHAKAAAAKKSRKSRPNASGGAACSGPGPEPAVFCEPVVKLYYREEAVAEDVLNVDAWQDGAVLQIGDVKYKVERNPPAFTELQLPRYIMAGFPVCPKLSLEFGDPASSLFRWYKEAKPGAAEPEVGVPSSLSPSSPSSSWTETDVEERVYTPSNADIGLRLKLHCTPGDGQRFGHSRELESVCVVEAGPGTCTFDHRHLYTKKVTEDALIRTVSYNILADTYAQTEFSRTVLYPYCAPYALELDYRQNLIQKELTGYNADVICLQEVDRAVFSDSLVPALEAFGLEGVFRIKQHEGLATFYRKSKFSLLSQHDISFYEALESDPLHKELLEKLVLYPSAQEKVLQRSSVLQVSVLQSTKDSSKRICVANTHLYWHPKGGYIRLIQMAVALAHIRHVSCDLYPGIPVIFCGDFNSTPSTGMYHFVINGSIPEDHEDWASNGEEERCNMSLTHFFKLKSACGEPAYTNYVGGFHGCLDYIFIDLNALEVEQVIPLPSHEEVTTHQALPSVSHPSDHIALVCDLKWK
UniProt Q15118, whole entry, looked up: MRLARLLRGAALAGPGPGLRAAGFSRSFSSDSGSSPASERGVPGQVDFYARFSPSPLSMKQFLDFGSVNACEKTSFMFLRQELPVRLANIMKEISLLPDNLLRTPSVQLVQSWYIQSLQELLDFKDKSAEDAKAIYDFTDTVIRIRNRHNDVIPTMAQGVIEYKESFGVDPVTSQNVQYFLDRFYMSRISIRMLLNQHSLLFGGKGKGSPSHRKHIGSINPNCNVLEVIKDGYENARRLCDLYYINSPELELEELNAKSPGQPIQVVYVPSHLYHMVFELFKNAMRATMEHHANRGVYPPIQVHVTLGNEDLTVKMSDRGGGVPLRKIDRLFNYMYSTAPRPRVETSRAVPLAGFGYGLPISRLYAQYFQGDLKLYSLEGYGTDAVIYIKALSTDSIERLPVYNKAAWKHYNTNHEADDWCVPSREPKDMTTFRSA
UniProt Q86SE9: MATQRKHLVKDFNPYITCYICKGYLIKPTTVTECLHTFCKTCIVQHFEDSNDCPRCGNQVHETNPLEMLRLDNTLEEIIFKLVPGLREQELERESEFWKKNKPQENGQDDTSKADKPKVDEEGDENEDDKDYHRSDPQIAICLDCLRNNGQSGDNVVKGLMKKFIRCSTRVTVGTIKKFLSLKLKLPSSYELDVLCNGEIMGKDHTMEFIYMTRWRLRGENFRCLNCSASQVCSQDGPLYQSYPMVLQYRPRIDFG
UniProt Q9UHG3: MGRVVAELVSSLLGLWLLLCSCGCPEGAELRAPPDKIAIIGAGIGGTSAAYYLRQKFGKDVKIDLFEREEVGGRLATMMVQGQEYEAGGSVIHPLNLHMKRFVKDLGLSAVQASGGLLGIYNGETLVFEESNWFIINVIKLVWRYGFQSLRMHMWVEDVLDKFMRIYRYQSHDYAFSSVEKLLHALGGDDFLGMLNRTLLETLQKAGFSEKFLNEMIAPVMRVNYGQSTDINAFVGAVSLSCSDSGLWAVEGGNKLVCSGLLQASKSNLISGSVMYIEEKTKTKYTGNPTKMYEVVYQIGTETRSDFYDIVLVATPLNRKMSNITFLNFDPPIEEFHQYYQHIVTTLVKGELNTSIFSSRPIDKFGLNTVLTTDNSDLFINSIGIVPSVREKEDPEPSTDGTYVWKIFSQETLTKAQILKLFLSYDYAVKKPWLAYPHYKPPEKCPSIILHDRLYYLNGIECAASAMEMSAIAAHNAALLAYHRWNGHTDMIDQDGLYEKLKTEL
UniProt Q9H0N5: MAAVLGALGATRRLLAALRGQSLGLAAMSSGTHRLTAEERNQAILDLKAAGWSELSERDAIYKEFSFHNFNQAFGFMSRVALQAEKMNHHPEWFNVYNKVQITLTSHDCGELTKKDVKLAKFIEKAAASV
UniProt Q14554: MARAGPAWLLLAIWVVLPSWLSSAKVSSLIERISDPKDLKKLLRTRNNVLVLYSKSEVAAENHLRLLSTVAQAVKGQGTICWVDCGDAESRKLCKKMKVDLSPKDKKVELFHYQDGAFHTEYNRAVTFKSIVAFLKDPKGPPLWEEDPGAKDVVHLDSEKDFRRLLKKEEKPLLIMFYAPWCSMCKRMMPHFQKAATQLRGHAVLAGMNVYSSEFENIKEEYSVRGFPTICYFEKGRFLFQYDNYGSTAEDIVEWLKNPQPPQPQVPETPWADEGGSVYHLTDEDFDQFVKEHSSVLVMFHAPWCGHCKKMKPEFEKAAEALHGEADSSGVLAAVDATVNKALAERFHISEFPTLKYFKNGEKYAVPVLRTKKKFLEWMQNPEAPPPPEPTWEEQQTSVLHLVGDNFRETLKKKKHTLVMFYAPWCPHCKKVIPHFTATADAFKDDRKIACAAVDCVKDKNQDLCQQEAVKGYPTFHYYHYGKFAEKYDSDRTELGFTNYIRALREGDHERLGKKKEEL
UniProt Q29RF7: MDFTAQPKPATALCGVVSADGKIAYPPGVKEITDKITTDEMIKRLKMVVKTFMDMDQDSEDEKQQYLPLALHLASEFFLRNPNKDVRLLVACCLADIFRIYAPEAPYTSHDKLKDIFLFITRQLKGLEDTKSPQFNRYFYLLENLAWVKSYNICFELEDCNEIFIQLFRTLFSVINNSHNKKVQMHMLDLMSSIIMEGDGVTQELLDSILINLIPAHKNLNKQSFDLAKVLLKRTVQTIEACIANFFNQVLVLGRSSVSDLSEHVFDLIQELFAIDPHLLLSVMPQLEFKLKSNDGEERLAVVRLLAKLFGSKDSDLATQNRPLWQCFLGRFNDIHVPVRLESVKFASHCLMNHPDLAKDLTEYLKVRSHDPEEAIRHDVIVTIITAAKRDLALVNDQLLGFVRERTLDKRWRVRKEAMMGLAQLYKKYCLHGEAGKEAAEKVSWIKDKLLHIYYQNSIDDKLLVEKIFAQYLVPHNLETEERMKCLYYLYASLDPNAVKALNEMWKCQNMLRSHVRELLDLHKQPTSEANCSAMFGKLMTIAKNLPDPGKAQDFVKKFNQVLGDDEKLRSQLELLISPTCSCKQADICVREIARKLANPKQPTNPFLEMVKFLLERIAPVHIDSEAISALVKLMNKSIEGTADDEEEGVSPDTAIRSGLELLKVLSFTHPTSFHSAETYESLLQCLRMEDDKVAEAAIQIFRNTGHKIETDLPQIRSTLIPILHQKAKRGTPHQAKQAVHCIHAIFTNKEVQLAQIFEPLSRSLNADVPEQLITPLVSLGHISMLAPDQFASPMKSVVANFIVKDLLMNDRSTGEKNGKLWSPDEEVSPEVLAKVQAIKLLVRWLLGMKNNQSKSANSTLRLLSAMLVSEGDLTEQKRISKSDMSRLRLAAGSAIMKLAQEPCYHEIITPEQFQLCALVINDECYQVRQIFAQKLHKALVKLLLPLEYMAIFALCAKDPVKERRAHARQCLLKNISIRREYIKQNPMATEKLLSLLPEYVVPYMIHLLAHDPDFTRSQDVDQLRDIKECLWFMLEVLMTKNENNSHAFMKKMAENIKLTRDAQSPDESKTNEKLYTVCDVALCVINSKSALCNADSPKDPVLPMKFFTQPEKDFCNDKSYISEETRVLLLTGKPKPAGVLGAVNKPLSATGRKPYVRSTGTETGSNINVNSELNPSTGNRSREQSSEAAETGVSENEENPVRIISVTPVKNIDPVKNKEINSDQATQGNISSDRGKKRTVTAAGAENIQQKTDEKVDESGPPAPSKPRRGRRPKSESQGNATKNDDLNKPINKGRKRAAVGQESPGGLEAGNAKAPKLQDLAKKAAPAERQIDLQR
UniProt P08237: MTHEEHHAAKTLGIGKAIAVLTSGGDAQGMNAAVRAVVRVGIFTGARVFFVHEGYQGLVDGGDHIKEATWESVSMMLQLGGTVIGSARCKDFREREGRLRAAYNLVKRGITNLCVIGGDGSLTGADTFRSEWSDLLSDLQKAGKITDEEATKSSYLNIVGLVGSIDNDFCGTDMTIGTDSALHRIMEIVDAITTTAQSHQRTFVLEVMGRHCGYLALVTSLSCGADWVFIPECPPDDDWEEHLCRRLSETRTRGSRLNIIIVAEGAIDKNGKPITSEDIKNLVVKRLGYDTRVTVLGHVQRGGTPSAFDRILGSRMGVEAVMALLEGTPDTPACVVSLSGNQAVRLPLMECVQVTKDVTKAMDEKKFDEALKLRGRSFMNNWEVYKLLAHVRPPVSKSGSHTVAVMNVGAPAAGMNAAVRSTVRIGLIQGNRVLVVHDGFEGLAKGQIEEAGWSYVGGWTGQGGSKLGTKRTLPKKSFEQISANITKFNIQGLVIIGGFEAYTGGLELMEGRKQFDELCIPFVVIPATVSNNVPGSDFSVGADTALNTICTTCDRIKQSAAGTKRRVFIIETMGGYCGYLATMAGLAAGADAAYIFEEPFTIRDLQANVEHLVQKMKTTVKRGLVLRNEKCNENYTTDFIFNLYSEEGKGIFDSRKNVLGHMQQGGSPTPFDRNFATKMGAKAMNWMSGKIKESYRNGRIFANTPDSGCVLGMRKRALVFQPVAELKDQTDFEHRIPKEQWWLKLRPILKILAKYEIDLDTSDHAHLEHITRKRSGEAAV
UniProt Q15154: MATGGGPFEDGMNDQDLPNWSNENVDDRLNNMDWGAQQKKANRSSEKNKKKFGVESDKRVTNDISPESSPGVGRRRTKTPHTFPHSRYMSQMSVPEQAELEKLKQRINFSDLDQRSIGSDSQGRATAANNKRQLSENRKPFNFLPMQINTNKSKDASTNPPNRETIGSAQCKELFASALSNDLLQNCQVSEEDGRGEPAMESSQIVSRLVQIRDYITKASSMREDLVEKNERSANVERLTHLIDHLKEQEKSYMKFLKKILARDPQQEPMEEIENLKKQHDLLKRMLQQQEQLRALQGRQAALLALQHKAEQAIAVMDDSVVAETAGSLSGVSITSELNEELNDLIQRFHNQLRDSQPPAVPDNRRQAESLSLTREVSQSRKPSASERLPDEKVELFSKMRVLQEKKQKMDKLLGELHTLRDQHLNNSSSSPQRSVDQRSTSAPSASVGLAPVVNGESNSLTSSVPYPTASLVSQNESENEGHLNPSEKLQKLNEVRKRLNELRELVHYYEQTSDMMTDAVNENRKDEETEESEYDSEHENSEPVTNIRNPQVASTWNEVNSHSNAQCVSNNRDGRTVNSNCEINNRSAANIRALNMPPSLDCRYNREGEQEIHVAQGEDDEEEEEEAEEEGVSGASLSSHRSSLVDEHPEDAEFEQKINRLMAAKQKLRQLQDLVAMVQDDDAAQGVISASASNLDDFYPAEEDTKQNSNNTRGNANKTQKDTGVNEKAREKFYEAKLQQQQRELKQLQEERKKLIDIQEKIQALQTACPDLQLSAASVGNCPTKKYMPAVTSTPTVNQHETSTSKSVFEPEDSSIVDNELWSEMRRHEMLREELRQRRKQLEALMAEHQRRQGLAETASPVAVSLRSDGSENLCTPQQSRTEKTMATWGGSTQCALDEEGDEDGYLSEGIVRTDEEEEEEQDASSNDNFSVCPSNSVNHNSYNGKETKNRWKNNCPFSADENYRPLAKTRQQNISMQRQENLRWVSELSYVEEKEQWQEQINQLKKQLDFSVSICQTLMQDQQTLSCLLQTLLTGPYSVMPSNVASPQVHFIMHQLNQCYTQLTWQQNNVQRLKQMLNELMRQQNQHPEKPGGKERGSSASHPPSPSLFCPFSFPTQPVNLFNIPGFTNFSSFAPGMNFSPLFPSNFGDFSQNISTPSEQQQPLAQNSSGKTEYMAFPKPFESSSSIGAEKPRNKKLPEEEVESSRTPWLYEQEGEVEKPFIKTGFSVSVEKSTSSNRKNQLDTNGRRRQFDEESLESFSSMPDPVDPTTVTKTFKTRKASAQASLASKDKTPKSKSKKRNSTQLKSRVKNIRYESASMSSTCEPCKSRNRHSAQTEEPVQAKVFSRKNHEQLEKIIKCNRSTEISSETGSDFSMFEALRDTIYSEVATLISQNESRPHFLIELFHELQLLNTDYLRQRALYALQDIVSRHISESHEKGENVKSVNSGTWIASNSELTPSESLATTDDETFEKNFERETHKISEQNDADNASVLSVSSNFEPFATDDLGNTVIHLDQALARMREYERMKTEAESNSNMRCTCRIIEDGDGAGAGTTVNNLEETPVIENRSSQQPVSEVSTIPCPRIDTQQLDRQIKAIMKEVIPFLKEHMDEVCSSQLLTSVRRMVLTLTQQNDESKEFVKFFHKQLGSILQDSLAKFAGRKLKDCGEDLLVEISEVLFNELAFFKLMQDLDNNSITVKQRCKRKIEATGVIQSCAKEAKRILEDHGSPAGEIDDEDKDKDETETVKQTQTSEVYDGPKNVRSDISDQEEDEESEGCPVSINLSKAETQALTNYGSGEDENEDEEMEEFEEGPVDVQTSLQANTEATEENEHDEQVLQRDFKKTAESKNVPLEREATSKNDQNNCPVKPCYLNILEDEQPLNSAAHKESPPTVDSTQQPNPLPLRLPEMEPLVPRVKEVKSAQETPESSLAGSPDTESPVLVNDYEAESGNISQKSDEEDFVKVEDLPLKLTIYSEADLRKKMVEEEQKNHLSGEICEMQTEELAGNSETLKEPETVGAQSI

This is one part of the list.

Compound in the assay: C1=CC=C(C=C1)[C@H](COC2=CC3=C(C=C2)NC(=O)N3)NC(=O)C4=CC=CN(C4=O)CC5=CC(=C(C=C5)F)F
As to the kind of experiment: log2 fold change, soluble protein after heating vs DMSO (PISA); higher = thermal stabilisation; K562 lysate, 10 uM; active = over 0.2 and 3.5 SD of the protein, either way, in both replicates (recomputed). In outline: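 Following dounce homogenisation of K562 pellets in PBS pH 7.4 with 1 mM MgCl2, crude extract at 1 mg/mL protein was incubated for 30 min with 10 μM compound. Aliquots were then heated for 3 min over 48°C-58°C and pooled, NP-40 was added to 0.5% at 4°C, and soluble protein was recovered as the supernatant at 21,000xg for 90 min. Channel-sum-equalised TMTpro 16plex LC-MS/MS quantified this protein. Each value, from duplicates, is a log-two fold change in thermal stability relative to solvent controls.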
For PGAM1 (UniProt P18669), the log2 fold change was inactive: 0.015. With PDE12 (UniProt Q6L8Q7) the figure was inactive: -0.018.

For PDK1 (UniProt Q15118), the log2 fold change was inactive: -0.154.

On to PCGF5 (UniProt Q86SE9), for which the log2 fold change was inactive: -0.022. For PCYOX1 (UniProt Q9UHG3) the value was inactive: -0.025; for PCBD2 (UniProt Q9H0N5), inactive: -0.019.

As to PDIA5 (UniProt Q14554), the log2 fold change is inactive: 0.011. For PGD (UniProt K7EPF6), the log2 fold change is inactive: -0.274. For PC (UniProt P11498) the value was inactive: 0.014; for PFKL isoform 2 (UniProt P17858), inactive: -0.026; for PEX10 isoform 2 (UniProt O60683), inactive: -0.034. PCBP2 (UniProt F8W0G4): the log2 fold change is inactive: 0.16. Take PDS5A (UniProt Q29RF7): the log2 fold change is inactive: -0.049.

As to PCTP (UniProt Q9UKL6), the log2 fold change was inactive: -0.059. Regarding PDCD5 (UniProt O14737), the log2 fold change was inactive: -0.009. With PDIA3 (UniProt H7BZJ3), the log2 fold change was inactive: 0.131.

For PFKM isoform 3 (UniProt P08237), the log2 fold change was inactive: 0.013. For PDCD6IP isoform 2 (UniProt Q8WUM4) the value was inactive: -0.019; for PDCD10 (UniProt Q9BUL8), inactive: -0.005. With PCM1 (UniProt Q15154) the figure was inactive: 0.019.

For PDE4DIP isoform 4 (UniProt Q5VU43), the log2 fold change was inactive: -0.102. As to PARP16 isoform 3 (UniProt Q8N5Y8), the log2 fold change is inactive: -0.036.
